# Reference: paper PMC11652890
# No constants are given. Whether binding was seen depends on the method and setting. In cells and extracts the contact can be indirect. Some entries that bind do so weakly or less than the wild type. Tags and fused reporters may be left off the sequences shown.
# T1: 6×CASB_(135-150)-HA (human)
# T1 sequence: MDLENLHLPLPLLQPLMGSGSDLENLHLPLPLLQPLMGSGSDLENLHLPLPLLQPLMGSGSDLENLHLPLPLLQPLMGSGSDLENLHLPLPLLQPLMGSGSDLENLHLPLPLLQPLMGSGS
# T2: FHL2-3×Flag (UniProt Q14192)
# T2 sequence: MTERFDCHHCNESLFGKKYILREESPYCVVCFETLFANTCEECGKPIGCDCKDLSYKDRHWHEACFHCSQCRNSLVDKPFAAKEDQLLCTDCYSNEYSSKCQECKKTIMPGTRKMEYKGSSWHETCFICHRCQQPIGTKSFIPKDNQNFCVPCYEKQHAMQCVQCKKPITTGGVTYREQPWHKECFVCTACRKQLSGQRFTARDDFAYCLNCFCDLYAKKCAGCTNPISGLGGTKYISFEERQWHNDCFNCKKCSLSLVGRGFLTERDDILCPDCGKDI
# B1: FHL2 (endogenous, RAW264.7) (protein, UniProt O70433 1-279)
# chain: MTERFDCHHCNESLYGKKYILKEENPHCVACFEELYANTCEECGTPIGCDCKDLSYKDRHWHEGCFHCSRCGSSLVDKPFAAKEEQLLCTDCYSNEYSSKCQECKKTIMPGTRKMEYKGSSWHETCFTCQRCQQPIGTKSFIPKENQNFCVPCYEKQYALQCVQCKKPITTGGVTYREQPWHKECFVCTACKKQLSGQRFTARDEFPYCLTCFCDLYAKKCAGCTNPISGLGGTKYISFEERQWHNDCFNCKKCSLSLVGRGFLTERDDILCPDCGKDI
# B2: 6×CASB_(135-150)-HA (protein)
# chain: T1 sequence
# B3: TNF receptor-associated factor 6 (TRAF6) (protein, UniProt P70196 1-530)
# chain: MSLLNCENSCGSSQSSSDCCAAMAASCSAAVKDDSVSGSASTGNLSSSFMEEIQGYDVEFDPPLESKYECPICLMALREAVQTPCGHRFCKACIIKSIRDAGHKCPVDNEILLENQLFPDNFAKREILSLTVKCPNKGCLQKMELRHLEDHQVHCEFALVNCPQCQRPFQKCQVNTHIIEDCPRRQVSCVNCAVSMAYEEKEIHDQSCPLANIICEYCGTILIREQMPNHYDLDCPTAPIPCTFSVFGCHEKMQRNHLARHLQENTQLHMRLLAQAVHNVNLALRPCDAASPSRGCRPEDPNYEETIKQLESRLVRQDHQIRELTAKMETQSMYVGELKRTIRTLEDKVAEMEAQQCNGIYIWKIGNFGMHLKSQEEERPVVIHSPGFYTGRPGYKLCMRLHLQLPTAQRCANYISLFVHTMQGEYDSHLPWPFQGTIRLTILDQSEALIRQNHEEVMDAKPELLAFQRPTIPRNPKGFGYVTFMHLEALRQGTFIKDDTLLVRCEVSTRFDMGGLRKEGFQPRSTDAGV
# Experiments:
# [1] = target: T1, 6×CASB_(135-150)-HA (human); assay: co-IP; RAW264.7 cells overexpressing 6×CASB_(135-150)-HA; anti-HA magnetic beads; IP lysis buffer (Tris pH 7.5, 150 mM NaCl, 0.5% NP-40); 6 washes with PBS; blot for FHL2
# FHL2-3×Flag [2] = target: T2, FHL2-3×Flag; assay: co-IP; FHL2-3×Flag co-expressed with 6×CASB_(135-150)-HA or 6×CASB_(135-150)(Mut)-HA in RAW264.7 cells; anti-Flag magnetic beads; IP lysis buffer (Tris pH 7.5, 150 mM NaCl, 0.5% NP-40); blot for HA
# FHL2-3×Flag [3] = target: T2, FHL2-3×Flag; assay: co-IP; RAW264.7 cells overexpressing FHL2-3×Flag for 48 hours; anti-Flag magnetic beads; blot for TRAF6
# FHL2-3×Flag [4] = target: T2, FHL2-3×Flag; assay: co-IP; competition: FHL2-3×Flag with rising levels of 6×CASB_(135-150)-HA (or with the Mut construct) co-expressed; anti-Flag magnetic beads; blot for TRAF6; cells RAW264.7 by the legend, 293T by the text
binder,measurement,setting,value
B1,binding,[1],binds
B2,binding,FHL2-3×Flag [2],binds
B3,binding,FHL2-3×Flag [3],binds
same,binding,FHL2-3×Flag [4],binds
